Data taken from patent US20020150567A1 (University of California, published 2002).
No constants are given. Whether binding was seen depends on the method and setting. In cells and extracts the contact can be indirect. Some entries that bind do so weakly or less than the wild type.

Chains of the proteins cited; added tags and fusions are not shown. Lines headed by an entry give the natural chain unless they say otherwise; changes in a name come on top.
UniProt Q92835: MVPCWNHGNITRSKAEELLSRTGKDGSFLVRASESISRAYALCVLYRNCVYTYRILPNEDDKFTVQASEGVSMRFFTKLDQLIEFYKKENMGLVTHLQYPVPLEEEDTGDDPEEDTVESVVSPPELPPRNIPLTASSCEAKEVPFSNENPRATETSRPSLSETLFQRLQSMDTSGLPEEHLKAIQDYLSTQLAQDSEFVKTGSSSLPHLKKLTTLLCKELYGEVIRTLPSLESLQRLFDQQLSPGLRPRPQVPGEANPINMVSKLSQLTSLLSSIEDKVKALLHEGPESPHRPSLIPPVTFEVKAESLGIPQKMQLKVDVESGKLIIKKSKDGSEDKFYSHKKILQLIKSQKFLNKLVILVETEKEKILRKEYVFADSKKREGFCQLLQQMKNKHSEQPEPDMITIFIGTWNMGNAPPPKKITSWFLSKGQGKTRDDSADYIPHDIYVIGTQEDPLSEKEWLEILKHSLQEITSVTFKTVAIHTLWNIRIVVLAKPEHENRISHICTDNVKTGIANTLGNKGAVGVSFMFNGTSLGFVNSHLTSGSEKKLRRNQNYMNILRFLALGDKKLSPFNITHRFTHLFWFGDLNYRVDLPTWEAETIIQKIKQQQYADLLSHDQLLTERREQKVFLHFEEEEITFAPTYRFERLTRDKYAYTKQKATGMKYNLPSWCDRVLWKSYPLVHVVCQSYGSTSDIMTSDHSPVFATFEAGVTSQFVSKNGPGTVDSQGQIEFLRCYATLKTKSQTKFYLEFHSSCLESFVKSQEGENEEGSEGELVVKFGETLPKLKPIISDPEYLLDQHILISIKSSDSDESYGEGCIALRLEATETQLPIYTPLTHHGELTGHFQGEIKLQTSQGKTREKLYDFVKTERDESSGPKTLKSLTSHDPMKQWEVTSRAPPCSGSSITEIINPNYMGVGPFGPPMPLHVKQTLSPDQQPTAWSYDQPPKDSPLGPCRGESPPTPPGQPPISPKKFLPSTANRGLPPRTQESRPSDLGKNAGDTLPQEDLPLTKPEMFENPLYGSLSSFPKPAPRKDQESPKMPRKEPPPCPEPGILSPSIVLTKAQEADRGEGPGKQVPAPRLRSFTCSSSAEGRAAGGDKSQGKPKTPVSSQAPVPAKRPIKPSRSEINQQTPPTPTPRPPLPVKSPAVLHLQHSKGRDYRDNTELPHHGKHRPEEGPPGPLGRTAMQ

Target: T1, full length GA5Ptase (human) (UniProt Q92835)
T1 sequence: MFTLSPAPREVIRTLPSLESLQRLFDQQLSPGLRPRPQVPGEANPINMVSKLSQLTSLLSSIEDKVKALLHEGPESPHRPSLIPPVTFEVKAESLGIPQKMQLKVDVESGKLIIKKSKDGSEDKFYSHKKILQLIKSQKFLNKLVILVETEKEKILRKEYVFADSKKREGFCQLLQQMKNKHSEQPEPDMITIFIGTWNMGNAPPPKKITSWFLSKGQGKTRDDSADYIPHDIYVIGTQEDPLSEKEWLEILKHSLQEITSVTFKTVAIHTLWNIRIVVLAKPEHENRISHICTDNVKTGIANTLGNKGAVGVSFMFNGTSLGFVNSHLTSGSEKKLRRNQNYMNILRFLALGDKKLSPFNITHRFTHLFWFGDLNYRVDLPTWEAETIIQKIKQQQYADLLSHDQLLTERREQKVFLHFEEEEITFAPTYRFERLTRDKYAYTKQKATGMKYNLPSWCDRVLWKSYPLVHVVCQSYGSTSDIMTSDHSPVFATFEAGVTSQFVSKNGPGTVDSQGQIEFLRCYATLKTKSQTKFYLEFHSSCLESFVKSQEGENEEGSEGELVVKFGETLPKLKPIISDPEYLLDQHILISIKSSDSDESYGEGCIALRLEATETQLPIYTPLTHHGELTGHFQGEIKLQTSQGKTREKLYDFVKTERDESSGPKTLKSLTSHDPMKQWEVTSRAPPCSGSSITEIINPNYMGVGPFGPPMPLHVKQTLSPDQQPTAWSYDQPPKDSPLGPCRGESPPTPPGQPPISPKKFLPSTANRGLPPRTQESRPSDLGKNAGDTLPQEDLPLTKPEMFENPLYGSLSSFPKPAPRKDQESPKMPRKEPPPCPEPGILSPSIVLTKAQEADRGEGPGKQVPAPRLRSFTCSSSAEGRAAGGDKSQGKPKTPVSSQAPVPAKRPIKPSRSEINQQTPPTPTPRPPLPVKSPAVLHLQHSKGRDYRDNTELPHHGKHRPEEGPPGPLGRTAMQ
Test: co-immunoprecipitation from transfected Cos7 cells (myc 9E10 / HA 12CA5 antibodies)

binding | Substance
binds | GRB3.3 (from UniProt P62993 1-176)
binds | wild type GRB2 (from UniProt P62993 1-217)
